Laboratory results published in patent US20260384479A1, “PEPTIDES AS ANTAGONISTS OF IKAROS ZINC FINGER FAMILY (IKZF) PROTEINS TO ACTIVATE THE IMMUNE SYSTEM AGAINST TUMOR CELLS” (published 2026).

Tested on: human T-cells
Experiment: ELISA for IL-2 secretion of T cells
Conditions: 10 μM peptide, 24 hours, T cells of healthy donors, serum-free medium
Description: C1 IKZF3 Domain Modified peptide (C1M) (Table 1) was tested in cell culture model to examine its ability to abrogate the IKZF1-IKZF3-induced IL-2 suppression. 18 different healthy donors were used to isolate the T cells using magnetic cell sorting approach. Afterwards, T cells were cultured for 24 hours in serum-free T cell medium and either 10 μM of the C1M peptide or Scrambled as a negative control or 10 μM Lenalidomide or 1 μM of Pomalidomide (as an IMiD control which have been previously described).
After 24 hours, the supernatant was collected and centrifuged to remove any cells and stored in-20 degrees. […]
In this assay, T cells were isolated from the peripheral blood of healthy donors and cultured in serum-free medium. […] After 24 hours, the supernatants from the cells were collected, and the levels of IL-2 were measured using a sensitive ELISA kit according to the manufacturer's instructions.
By comparing the levels of IL-2 secretion in cells treated with the testing peptide versus the control peptide, we were able to determine the peptide's ability to increase IL-2 secretion in T cells. This assay provided a quantitative readout of the peptide's activity and allowed us to accurately assess the effectiveness of the peptide in promoting IL-2 secretion.

CC[C@H](C)[C@H](NC(=O)[C@@H](NC(=O)[C@H](Cc1ccccc1)NC(=O)[C@H](CCSC)NC(=O)[C@@H](NC(=O)[C@H](Cc1ccc(O)cc1)NC(=O)[C@H](CC(=O)O)NC(=O)[C@H](CC(C)C)NC(=O)[C@H](Cc1ccccc1)NC(=O)[C@H](CC(C)C)NC(=O)[C@@H](NC(=O)[C@H](CCCNC(=N)N)NC(=O)[C@H](CS)NC(=O)[C@H](Cc1c[nH]cn1)NC(=O)[C@H](CC(=O)O)NC(=O)[C@H](CS)NC(=O)[C@H](CCCNC(=N)N)NC(=O)[C@H](Cc1ccc(O)cc1)NC(=O)[C@H](CCCNC(=N)N)NC(=O)[C@@H](N)CCCNC(=N)N)C(C)C)C(C)C)[C@@H](C)O)C(=O)N[C@@H](Cc1c[nH]cn1)C(=O)N[C@@H](CCSC)C(=O)NCC(=O)N[C@@H](CS)C(=O)N[C@@H](Cc1c[nH]cn1)C(=O)N[C@@H](CCCNC(=N)N)C(=O)N[C@@H](CCCNC(=N)N)C(=O)N[C@@H](CCCNC(=N)N)C(=O)N[C@@H](CCCNC(=N)N)C(=O)O
IL-2 secretion: in all cases, IL-2 secretion increased and increase in IL-2 production

Certain results were filed several times, with different values. Only these are listed. The source may hold further records. The values listed for one entry differ, and nothing given here explains why; they may come from other doses, times, organisms or constructs than stated.
